Data as given in PubChem BioAssay AID652272 (Drosophila RNAi Screening Center, 2013).
The deposit covers about 21,000 reagents; this is an unselected part of those with a known target gene and a result. Over the whole deposit, 503 (2.4%) are marked active. 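Raw plate light values, not normalised; calls rest on replicate z-scores that were not deposited; hits include reporter decreases as well as increases.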 A plus sign joins genes that one reagent is predicted to hit. No sequences are given here. Not stated in the record: the amount of reagent, the time to read-out.

Assay: 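Genome-wide knock-down search for components of Hedgehog signalling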 (primary screen)
System: Drosophila clone 8 (Cl8) cells
Reagent: long dsRNA against Drosophila genes
Detection: 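Firefly light from a Hedgehog-responsive ptc promoter reporter and Renilla reference light, both read on a plate reader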
Direction: firefly Hh reporter signal: higher = more ptc reporter light; Renilla reference signal: higher = more Renilla control light
Rule for the call: 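Called a hit if the two-replicate mean z-score lies below -2 or above +3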
Meaning of the calls: active = hit: reporter lowered or raised; inactive = not a hit

Target gene | dsRNA | firefly Hh reporter signal, replicate 1 | firefly Hh reporter signal, replicate 2 | Renilla reference signal, replicate 1 | Renilla reference signal, replicate 2 | Call
Start1 (GeneID 37927) | DRSC04384 | 1.26e5 | 1.26e5 | 4721 | 4589 | inactive
ND-51L1 (GeneID 36998) | DRSC06072 | 77787 | 42520 | 2003 | 2951 | inactive
CG4744 (GeneID 36485) | DRSC06887 | 72604 | 73958 | 3682 | 3173 | inactive
CG42374 + Mettl5 | DRSC11085 | 1.51e5 | 79181 | 6258 | 3136 | inactive
CG4074 (GeneID 40290) | DRSC11752 | 95527 | 80310 | 3078 | 2473 | inactive
AspRS (GeneID 36420) | DRSC05914 | 84519 | 44880 | 3560 | 2122 | inactive
CG31224 (GeneID 42237) | DRSC15272 | 3.80e5 | 82992 | 3641 | 3641 | inactive
CG31224 (GeneID 42237) | DRSC16290 | 1.18e5 | 1.00e5 | 3753 | 3888 | inactive
CG11964 (GeneID 41068) | DRSC14447 | 1.06e5 | 73444 | 3920 | 2948 | inactive
Abl (GeneID 45821) | DRSC09661 | 1.50e5 | – | 2571 | 7100 | inactive
drongo (GeneID 33263) | DRSC00814 | 95433 | 83625 | 3600 | 3189 | inactive
CG30479 (GeneID 36631) | DRSC06735 | 70972 | 29392 | 2048 | 2577 | inactive
CG32668 (GeneID 318147) | DRSC18879 | 4.55e5 | 2.52e5 | 24237 | 5612 | inactive
Vha16-4 (GeneID 36900) | DRSC07321 | 81120 | 55160 | 2357 | 3942 | inactive
CG33459 (GeneID 2768847) | DRSC05615 | 1.17e5 | 1.53e5 | 2873 | 6688 | inactive
DhpD (GeneID 40528) | DRSC12288 | 1.45e5 | 67642 | 5681 | 2818 | inactive
CG2021 (GeneID 38229) | DRSC08546 | 81677 | 39590 | 2770 | 3619 | inactive
CG11300 (GeneID 37760) | DRSC04104 | 91149 | 56896 | 2280 | 5744 | inactive
asrij (GeneID 37637) | DRSC04175 | 92490 | 72787 | 2443 | 5732 | inactive
CG45263 (GeneID 50003) | DRSC12682 | 2.19e5 | – | 4698 | – | inactive
CG45263 (GeneID 50003) | DRSC14357 | 54756 | 82262 | 1307 | 2688 | inactive
CG45263 (GeneID 50003) | DRSC14360 | 53831 | 85466 | 1657 | 2529 | inactive
CG45263 (GeneID 50003) | DRSC14361 | 58763 | 98880 | 2179 | 2945 | inactive
CG45263 (GeneID 50003) | DRSC14363 | 42128 | 85194 | 1203 | 3159 | inactive
ValRS (GeneID 45783) | DRSC06864 | 1.24e5 | 56932 | 4593 | 800 | inactive
CG9517 (retired record) (GeneID 32417) | DRSC20192 | 1.02e5 | 2.29e5 | 3067 | 10348 | inactive
CG9517 (retired record) (GeneID 32417) | DRSC20193 | 70706 | 1.43e5 | 1968 | 6193 | inactive
mRpL33 (GeneID 50381) | DRSC18319 | 83643 | 3.01e5 | 2945 | 9525 | inactive
CG10949 (GeneID 35310) | DRSC02112 | 61192 | 44848 | 2778 | 1577 | inactive
Ugt50B3 (GeneID 246614) | DRSC04778 | 2.05e5 | 3.00e5 | 5078 | 13312 | inactive
Ugt50B3 (GeneID 246614) | DRSC04779 | 2.37e5 | 3.13e5 | 5772 | 14426 | inactive
ZnT33D (GeneID 326167) | DRSC02591 | 1.19e5 | 45218 | 3092 | 3777 | inactive
CG9289 (GeneID 34195) | DRSC03187 | 85883 | 46224 | 2213 | 4434 | inactive
CG7695 (GeneID 42234) | DRSC16289 | 6.78e5 | 94848 | 34076 | 2620 | inactive
CG7251 (GeneID 33791) | DRSC03039 | 65045 | 48599 | 2754 | 1988 | inactive
Usp15-31 (GeneID 37954) | DRSC04426 | 1.99e5 | 1.29e5 | 6690 | 4261 | inactive
Usp15-31 (GeneID 37954) | DRSC04532 | 54240 | 33104 | 1516 | 2859 | inactive
robo1 (GeneID 37603) | DRSC04712 | 1.01e5 | 81500 | 2882 | 7024 | inactive
Myc (GeneID 31310) | DRSC18762 | 41920 | 80410 | 882 | 2884 | inactive
l(3)05822 (GeneID 47260) | DRSC16202 | 1.24e5 | 94672 | 5110 | 4045 | inactive
DMAP1 (GeneID 37339) | DRSC06044 | 83496 | 74141 | 3798 | 3115 | inactive
Cyp6a19 (GeneID 36662) | DRSC07379 | 1.22e5 | 58945 | 4801 | 1888 | inactive
lncRNA:CR43314 (GeneID 12798160) | DRSC01216 | 5.92e5 | 2.76e5 | 33767 | 11779 | inactive
Mlc1 (GeneID 43323) | DRSC16740 | 79052 | 77987 | 2592 | 2864 | inactive
sw (GeneID 44160) | DRSC20388 | 8.58e5 | 3.88e5 | 48295 | 8061 | inactive
Tollo (GeneID 44497) | DRSC11305 | 78467 | – | 3238 | 1901 | inactive
Pfdn1 (GeneID 33857) | DRSC02325 | 1.43e5 | 60725 | 3549 | 6361 | inactive
CG34133 (GeneID 318566) | DRSC16319 | 1.12e5 | 52888 | 2720 | 1728 | inactive
CG5662 (GeneID 32450) | DRSC19957 | 3.52e5 | 59894 | 2481 | 2481 | inactive
Gle1 (GeneID 35849) | DRSC06485 | 81682 | 33765 | 2821 | 1200 | inactive
Hex-t1 (GeneID 117364) | DRSC16701 | 5.78e5 | 88592 | 27927 | 427 | inactive
ITP (GeneID 37921) | DRSC04222 | 71395 | 45129 | 1658 | 4041 | inactive
cv-d (GeneID 41921) | DRSC16522 | 80072 | 88669 | 3004 | 3264 | inactive
cv-d (GeneID 41921) | DRSC16524 | 75959 | 60630 | 2326 | 1746 | inactive
cv-d (GeneID 41921) | DRSC16526 | 95320 | 98226 | 2275 | 3240 | inactive
CG6701 (GeneID 36550) | DRSC07007 | 72005 | 33280 | 2624 | 1575 | inactive
CG10126 (GeneID 41579) | DRSC14191 | 1.61e5 | 1.10e5 | 6016 | 4180 | inactive

Records above whose gene name begins with V or v (2):
Target gene | dsRNA | firefly Hh reporter signal, replicate 1 | firefly Hh reporter signal, replicate 2 | Renilla reference signal, replicate 1 | Renilla reference signal, replicate 2 | Call
Vha16-4 (GeneID 36900) | DRSC07321 | 81120 | 55160 | 2357 | 3942 | inactive
ValRS (GeneID 45783) | DRSC06864 | 1.24e5 | 56932 | 4593 | 800 | inactive
